# Measurements from US12303511B2 (priority 2018, dated 2025).
# Columns and labels:
# Gpr139−/− mice = conditions: chronic administration, mice lacking GPR139 vs wild-type
# [1] = tested on: transgenic C. elegans (tgMOR) that express mammalian MOR; conditions: in vivo
smiles,measurement,setting,value
CN1CC[C@]23c4c5ccc(O)c4O[C@H]2[C@@H](O)C=C[C@H]3[C@H]1C5 [morphine],dependence (withdrawal across a spectrum of behaviors),Gpr139−/− mice,lower dependence
same,shift of the dose response,[1],prominent left-ward shift in concentration dependence
